Record: PubChem BioAssay AID1224830 (NIAID, 2016)

Purpose: 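Regulators of TLR4 signalling towards TNF-alpha in macrophage-like cells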 (primary screen)
Cells: human THP-1 monocytic leukaemia cells, TNF dual-luciferase reporter clone, PMA-differentiated to macrophage-like cells
Reagents: siRNA pool against human genes, 50 nM
Duration: LPS for 4 h, given about 3 days after siRNA transfection
Challenge: bacterial LPS (TLR4 ligand), 10 ng/ml
Detection: 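Ratio of firefly to renilla light, scaled to the plate median and expressed as a robust z-score per replicate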
Scale: TNF reporter robust z-score: higher = stronger TNF reporter response to LPS
Hit rule: 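Each well counts as active if its z-score is over 2.8 or under -1.5; controls are left without a call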
This is an unselected part of about 18,000 reagents. About 2,900 of all reagents (16%) count as active. 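Calls are made per well; low scores hint the gene aids the LPS response, high scores that it dampens it.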 Entries without a mark were called inactive. Repeated entries: four replicate wells of each siRNA pool.

| target gene | TNF reporter robust z-score |
| --- | --- |
| OR4D9 (olfactory receptor family 4 subfamily D member 9) | 1.39 |
| OR4D9 (olfactory receptor family 4 subfamily D member 9) | 0.47 |
| OR4D9 (olfactory receptor family 4 subfamily D member 9) | 0.76 |
| OR4D9 (olfactory receptor family 4 subfamily D member 9) | 1.89 |
| MAML2 (mastermind like transcriptional coactivator 2) | -0.85 |
| MAML2 (mastermind like transcriptional coactivator 2) | -0.46 |
| MAML2 (mastermind like transcriptional coactivator 2) | -0.91 |
| MAML2 (mastermind like transcriptional coactivator 2) | -1.3 |
| PTGFRN (prostaglandin F2 receptor inhibitor) | -1.28 |
| PTGFRN (prostaglandin F2 receptor inhibitor) | 0.1 |
| PTGFRN (prostaglandin F2 receptor inhibitor) | -0.82 |
| PTGFRN (prostaglandin F2 receptor inhibitor) | -0.59 |
| PRKD3 (protein kinase D3) | 2.14 |
| PRKD3 (protein kinase D3) | 1.13 |
| PRKD3 (protein kinase D3) | -0.14 |
| PRKD3 (protein kinase D3) | 2.55 |
| SRRD (SRR1 domain containing) | -0.09 |
| SRRD (SRR1 domain containing) | 0.67 |
| SRRD (SRR1 domain containing) | -0.15 |
| SRRD (SRR1 domain containing) | 1.22 |
| SYNGAP1 (synaptic Ras GTPase activating protein 1) | -0.75 |
| SYNGAP1 (synaptic Ras GTPase activating protein 1) | -0.49 |
| SYNGAP1 (synaptic Ras GTPase activating protein 1) | -0.86 |
| SYNGAP1 (synaptic Ras GTPase activating protein 1) | -0.94 |
| CYP39A1 (cytochrome P450 family 39 subfamily A member 1) | -0.35 |
| CYP39A1 (cytochrome P450 family 39 subfamily A member 1) | 0.26 |
| CYP39A1 (cytochrome P450 family 39 subfamily A member 1) | 0.55 |
| CYP39A1 (cytochrome P450 family 39 subfamily A member 1) | -0.53 |
| CETN3 (centrin 3) | -1.55 (active) |
| CETN3 (centrin 3) | -1.57 (active) |
| CETN3 (centrin 3) | -1.64 (active) |
| CETN3 (centrin 3) | -1.45 |
| MRPS27 (mitochondrial ribosomal protein S27) | -1.28 |
| MRPS27 (mitochondrial ribosomal protein S27) | -1.52 (active) |
| MRPS27 (mitochondrial ribosomal protein S27) | -1.09 |
| MRPS27 (mitochondrial ribosomal protein S27) | -0.73 |
| TNKS2 (tankyrase 2) | 1.43 |
| TNKS2 (tankyrase 2) | 0.73 |
| TNKS2 (tankyrase 2) | 0.88 |
| TNKS2 (tankyrase 2) | 0.41 |
| SERHL2 (serine hydrolase like 2) | -0.02 |
| SERHL2 (serine hydrolase like 2) | 0.11 |
| SERHL2 (serine hydrolase like 2) | -0.32 |
| SERHL2 (serine hydrolase like 2) | 0.01 |
| FAM169BP (family with sequence similarity 169 member B, pseudogene) | -1.18 |
| FAM169BP (family with sequence similarity 169 member B, pseudogene) | -0.51 |
| FAM169BP (family with sequence similarity 169 member B, pseudogene) | -0.87 |
| FAM169BP (family with sequence similarity 169 member B, pseudogene) | 0.85 |
| ELP3 (elongator acetyltransferase complex subunit 3) | -1.17 |
| ELP3 (elongator acetyltransferase complex subunit 3) | 0.82 |
| ELP3 (elongator acetyltransferase complex subunit 3) | 0.83 |
| ELP3 (elongator acetyltransferase complex subunit 3) | 2.07 |
| KRTAP12-3 (keratin associated protein 12-3) | -1.24 |
| KRTAP12-3 (keratin associated protein 12-3) | 0.32 |
| KRTAP12-3 (keratin associated protein 12-3) | -0.78 |
| KRTAP12-3 (keratin associated protein 12-3) | -0.44 |
| PAQR9 (progestin and adipoQ receptor family member 9) | 0.79 |
| PAQR9 (progestin and adipoQ receptor family member 9) | -0.9 |
| PAQR9 (progestin and adipoQ receptor family member 9) | -1.24 |
| PAQR9 (progestin and adipoQ receptor family member 9) | -1.36 |
| RSPRY1 (ring finger and SPRY domain containing 1) | -0.78 |
| RSPRY1 (ring finger and SPRY domain containing 1) | 3.48 (active) |
| RSPRY1 (ring finger and SPRY domain containing 1) | -1.43 |
| RSPRY1 (ring finger and SPRY domain containing 1) | 0.53 |
| ZNF784 (zinc finger protein 784) | -0.05 |
| ZNF784 (zinc finger protein 784) | -0.15 |
| ZNF784 (zinc finger protein 784) | 0.58 |
| ZNF784 (zinc finger protein 784) | -1.62 (active) |
| LDB2 (LIM domain binding 2) | -0.62 |
| LDB2 (LIM domain binding 2) | -1.05 |
| LDB2 (LIM domain binding 2) | -0.82 |
| LDB2 (LIM domain binding 2) | -0.04 |
| MDH1B (malate dehydrogenase 1B) | 8.31 (active) |
| MDH1B (malate dehydrogenase 1B) | 0.26 |
| MDH1B (malate dehydrogenase 1B) | -0.78 |
| MDH1B (malate dehydrogenase 1B) | -0.38 |
| FAHD2B (fumarylacetoacetate hydrolase domain containing 2B) | -0.98 |
| FAHD2B (fumarylacetoacetate hydrolase domain containing 2B) | -0.96 |
| FAHD2B (fumarylacetoacetate hydrolase domain containing 2B) | -0.87 |
| FAHD2B (fumarylacetoacetate hydrolase domain containing 2B) | -0.88 |
| GCGR (glucagon receptor) | 0.17 |
| GCGR (glucagon receptor) | 4.24 (active) |
| GCGR (glucagon receptor) | 0.54 |
| GCGR (glucagon receptor) | 0.28 |
| RIPOR1 (RHO family interacting cell polarization regulator 1) | -0.46 |
| RIPOR1 (RHO family interacting cell polarization regulator 1) | 0.03 |
| RIPOR1 (RHO family interacting cell polarization regulator 1) | -0.56 |
| RIPOR1 (RHO family interacting cell polarization regulator 1) | 0.24 |
| LOC155060 (AI894139 pseudogene) | -0.29 |
| LOC155060 (AI894139 pseudogene) | -0.43 |
| LOC155060 (AI894139 pseudogene) | -0.68 |
| LOC155060 (AI894139 pseudogene) | -0.02 |
| EPPK1 (epiplakin 1) | -0.53 |
| EPPK1 (epiplakin 1) | 0.28 |
| EPPK1 (epiplakin 1) | 0.32 |
| EPPK1 (epiplakin 1) | 0.33 |
| SCAF1 (SR-related CTD associated factor 1) | -0.64 |
| SCAF1 (SR-related CTD associated factor 1) | 2.4 |
| SCAF1 (SR-related CTD associated factor 1) | -0.01 |
| SCAF1 (SR-related CTD associated factor 1) | -0.05 |
| WNT4 (Wnt family member 4) | 1.39 |
| WNT4 (Wnt family member 4) | 2.21 |
| WNT4 (Wnt family member 4) | 1.97 |
| WNT4 (Wnt family member 4) | 0.41 |
| RHOV (ras homolog family member V) | -0.39 |
| RHOV (ras homolog family member V) | -0.9 |
| RHOV (ras homolog family member V) | -1.3 |
| RHOV (ras homolog family member V) | 0 |
| SEC16B (SEC16 homolog B, endoplasmic reticulum export factor) | 0.21 |
| SEC16B (SEC16 homolog B, endoplasmic reticulum export factor) | 0.78 |
| SEC16B (SEC16 homolog B, endoplasmic reticulum export factor) | 0.44 |
| SEC16B (SEC16 homolog B, endoplasmic reticulum export factor) | 0.45 |

Active calls, of those listed so far:
| target gene | TNF reporter robust z-score |
| --- | --- |
| CETN3 (centrin 3) | -1.55 (active) |
| CETN3 (centrin 3) | -1.57 (active) |
| CETN3 (centrin 3) | -1.64 (active) |
| MRPS27 (mitochondrial ribosomal protein S27) | -1.52 (active) |
| RSPRY1 (ring finger and SPRY domain containing 1) | 3.48 (active) |
| ZNF784 (zinc finger protein 784) | -1.62 (active) |
| MDH1B (malate dehydrogenase 1B) | 8.31 (active) |
| GCGR (glucagon receptor) | 4.24 (active) |
